This passage reports step yield and isolated mass results from patent publication US5340802A (Abbott Laboratories, priority 1993, dated 1994).

* marks the point of attachment. Boc = CC(C)(C)OC(=O)*

One series is described as follows: general procedure: solution-phase peptide synthesis; DPPA/N-methylmorpholine; active esters; isobutyl chloroformate/NMM. Conditions: coupling step.
On to Ctp-Tpp-Asp(β-OBn)-(NMe)phe-NH2, for which the step yield is 57% yield. The same measure, in the same setting: under Ctp-Leu-Asp-Phe-NHNH2 stands 60% yield; under “BOC-[5-amino-2-(1H-indol-3-ylmethyl)-2-pentenoyl]-Leu-Asp-Phe-NH2”, 60%; under “N^α -BOC-N^in -formyl-Trp-Leu-Asp-Phe-NH2”, 50%.

In turn, Ctp-Tpp-Asp(OBn)-Phe-NH2 showed a step yield of 47% yield.

Regarding BOC-Trp-Leu-Asp(OBn)-β-Nal-NH2, the step yield is reported as 73% yield.

As to BOC-Trp-Leu-Asp(OBn)-α-Nal-NH2, the step yield is 70% yield.

In turn, BOC-Trp-Tpp-Asp(OBn)-Phe-NH2 showed a step yield of 83% yield. Still for that read-out and setting: the same measure for “BOC-Trp-Leu-Asp(OBn)-[3(S)-benzyl-2-oxo-4-piperazine]”: 84%; for “N^α -BOC-(N^in -propionyl)Trp-Leu-Asp-Phe-NH2”: 67%.

Staying with this series, now noted: coupling step, from the compound of Example 23h.
As to BOC-Gly.psi.[CH=CH]Trp-Leu-Asp-Phe-NH2, the step yield came to 59% yield.

The series is the same for the next values; noted with them: late stage modification step.
The substance BOC-Trp-Leu-Asp-α-Nal-NH2 displayed a step yield of 71% yield.

Still in this series, the particulars now being: whole synthesis, scale 1.50 g of BOC-Trp-O-resin (0.26 mmol/g).
The substance Boc-WLDW-NH2 displayed an isolated mass of 69 mg.
